Record: PubChem BioAssay AID1259405 (NCATS, 2018)
Screen: 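Mouse-designed siRNAs used to find CHO productivity engineering targets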 (primary screen). System: Chinese hamster CHO-K1 ovary cells with stable secreted eGFP expression. Reagent: single siRNA against mouse genes, 0.8 pmol siRNA per well (2 µl of 400 nM stock). Timing: 3 days. Measured: 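Percent of the per-plate non-targeting control median for intracellular GFP per well by laser scanning cytometry and for cell viability by ATP luminescence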. Scale: GFP, % of control: higher = more GFP per well, higher productivity; viability (ATP), % of control: higher = more viable cells (more ATP). Rule for the call: 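Called active when intracellular GFP, relative to negative control, is at or above 120%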.
The whole screen tested about 50,000 reagents; shown is a random part of them. Over the whole deposit, about 4,000 (8%) were called active. 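Mouse siRNA library applied to hamster cells; one well for each siRNA.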 Reagents against one gene are numbered here. Reagent sequences are not shown.

Target gene | siRNA no. | GFP, % of control | viability (ATP), % of control | activity call
Clec4d (GeneID 17474) | 1 | 36.1 | 36.9 | inactive
Clec4d (GeneID 17474) | 2 | 88.2 | 78.6 | inactive
Clec4d (GeneID 17474) | 3 | 67.7 | 77.3 | inactive
Or2ag16 (GeneID 258595) | 1 | 77.1 | 61.3 | inactive
Or2ag16 (GeneID 258595) | 2 | 89.7 | 64 | inactive
Or2ag16 (GeneID 258595) | 3 | 53 | 69.3 | inactive
Or1j1 (GeneID 18328) | 1 | 81.7 | 67.5 | inactive
Or1j1 (GeneID 18328) | 2 | 106 | 83.1 | inactive
Or1j1 (GeneID 18328) | 3 | 59.9 | 93.4 | inactive
Ighmbp2 (GeneID 20589) | 1 | 150 | 106 | active
Ighmbp2 (GeneID 20589) | 2 | 97.8 | 113 | inactive
Ighmbp2 (GeneID 20589) | 3 | 37.9 | 34.7 | inactive
Hmcn2 (GeneID 665700) | 1 | 46.6 | 27.9 | inactive
Hmcn2 (GeneID 665700) | 2 | 74.3 | 77.1 | inactive
Hmcn2 (GeneID 665700) | 3 | 86.3 | 87.6 | inactive
Ccdc169 (GeneID 320604) | 1 | 72.3 | 61.6 | inactive
Ccdc169 (GeneID 320604) | 2 | 34.8 | 24.8 | inactive
Ccdc169 (GeneID 320604) | 3 | 92 | 88.4 | inactive
Tnpo2 (GeneID 212999) | 1 | 102 | 80 | inactive
Tnpo2 (GeneID 212999) | 2 | 81.5 | 65.8 | inactive
Tnpo2 (GeneID 212999) | 3 | 76.2 | 57.6 | inactive
Khdc1a (GeneID 368204) | 1 | 86 | 95.2 | inactive
Khdc1a (GeneID 368204) | 2 | 39.7 | 40.2 | inactive
Khdc1a (GeneID 368204) | 3 | 81.4 | 92.6 | inactive
Tspan9 (GeneID 109246) | 1 | 87.7 | 45 | inactive
Tspan9 (GeneID 109246) | 2 | 48.1 | 31.9 | inactive
Tspan9 (GeneID 109246) | 3 | 78.8 | 62.8 | inactive
Cbln3 (GeneID 56410) | 1 | 53.5 | 43.6 | inactive
Cbln3 (GeneID 56410) | 2 | 61.7 | 68.3 | inactive
Cbln3 (GeneID 56410) | 3 | 48.7 | 62.4 | inactive
Arhgap25 (GeneID 232201) | 1 | 45.1 | 64.1 | inactive
Arhgap25 (GeneID 232201) | 2 | 74.8 | 80.7 | inactive
Arhgap25 (GeneID 232201) | 3 | 106 | 55.2 | inactive
Lpcat4 (GeneID 99010) | 1 | 78.4 | 102 | inactive
Lpcat4 (GeneID 99010) | 2 | 101 | 80.1 | inactive
Cd300a (GeneID 217303) | 1 | 48.3 | 35.9 | inactive
Cd300a (GeneID 217303) | 2 | 70.9 | 62.2 | inactive
Cd300a (GeneID 217303) | 3 | 102 | 64.6 | inactive
Slc35b1 (GeneID 110172) | 1 | 81.7 | 108 | inactive
Slc35b1 (GeneID 110172) | 2 | 92.6 | 95.1 | inactive
Slc35b1 (GeneID 110172) | 3 | 109 | 131 | inactive
Cenatac (GeneID 382073) | 1 | 50.6 | 56.9 | inactive
Cenatac (GeneID 382073) | 2 | 98.2 | 84.1 | inactive
Cenatac (GeneID 382073) | 3 | 104 | 102 | inactive
Ndufa8 (GeneID 68375) | 1 | 76.5 | 120 | inactive
Ndufa8 (GeneID 68375) | 2 | 111 | 57.8 | inactive
Elp5 (GeneID 54351) | 1 | 93.2 | 76.2 | inactive
Elp5 (GeneID 54351) | 2 | 5.31 | 9.17 | inactive
Elp5 (GeneID 54351) | 3 | 47.9 | 40.1 | inactive
Tcstv2a (GeneID 236546) | 1 | 96.3 | 64.6 | inactive
Tcstv2a (GeneID 236546) | 2 | 78 | 51.5 | inactive
Tcstv2a (GeneID 236546) | 3 | 87.6 | 71.3 | inactive
Fgd5 (GeneID 232237) | 1 | 76.4 | 71.8 | inactive
Fgd5 (GeneID 232237) | 2 | 89.4 | 92.9 | inactive
Fgd5 (GeneID 232237) | 3 | 86.5 | 66.1 | inactive
Tmem115 (GeneID 56395) | 1 | 94.5 | 112 | inactive
Tmem115 (GeneID 56395) | 2 | 75.1 | 83.2 | inactive
Tmem115 (GeneID 56395) | 3 | 36.2 | 40.2 | inactive
Slc4a2 (GeneID 20535) | 1 | 73.8 | 72.9 | inactive
Slc4a2 (GeneID 20535) | 2 | 65.3 | 84.2 | inactive
Slc4a2 (GeneID 20535) | 3 | 43.6 | 54.1 | inactive
Zfp866 (GeneID 330788) | 1 | 33.8 | 33.3 | inactive
Zfp866 (GeneID 330788) | 2 | 45.9 | 32.3 | inactive
Zfp866 (GeneID 330788) | 3 | 110 | 93.4 | inactive
Cfhr2 (GeneID 545366) | 1 | 62.8 | 76.4 | inactive
Cfhr2 (GeneID 545366) | 2 | 55.3 | 52.7 | inactive
Cfhr2 (GeneID 545366) | 3 | 73.8 | 62 | inactive
Or4n4b (GeneID 258657) | 1 | 74.9 | 66.2 | inactive
Or4n4b (GeneID 258657) | 2 | 38.9 | 32.3 | inactive
Or4n4b (GeneID 258657) | 3 | 75.3 | 110 | inactive
Kcnd2 (GeneID 16508) | 1 | 112 | 98.6 | inactive
Kcnd2 (GeneID 16508) | 2 | 92.1 | 45.9 | inactive
Kcnd2 (GeneID 16508) | 3 | 44.2 | 67.2 | inactive
Stk38l (GeneID 232533) | 1 | 137 | 89.1 | active
Stk38l (GeneID 232533) | 2 | 86.1 | 78.1 | inactive
Stk38l (GeneID 232533) | 3 | 80.2 | 74.1 | inactive
Pcid2 (GeneID 234069) | 1 | 96.3 | 81.5 | inactive
Pcid2 (GeneID 234069) | 2 | 42.9 | 28.4 | inactive
Pcid2 (GeneID 234069) | 3 | 66.5 | 87.9 | inactive
Bst1 (GeneID 12182) | 1 | 102 | 69.6 | inactive
Bst1 (GeneID 12182) | 2 | 59.6 | 27.4 | inactive
Bst1 (GeneID 12182) | 3 | 75.7 | 55.2 | inactive
Fam135a (GeneID 68187) | 1 | 65 | 69.6 | inactive
Fam135a (GeneID 68187) | 2 | 118 | 84.3 | inactive
Fam135a (GeneID 68187) | 3 | 84.5 | 97.1 | inactive

Records listed above marked active (2):
Target gene | siRNA no. | GFP, % of control | viability (ATP), % of control | activity call
Ighmbp2 (GeneID 20589) | 1 | 150 | 106 | active
Stk38l (GeneID 232533) | 1 | 137 | 89.1 | active
